Read-outs that look alike come from different tables or passages of the source. A weaker result is weaker than the reference pair of the same experiment. The exact form of at least one protein or probe is not confirmed. At least one verdict rests on a figure or table, not on a statement of the authors.
Tested on: Human alpha-thrombin (Factor IIa) (Homo sapiens)
Assay: bead fluorescence binding

Sequence | binding result | other results
ACGTGAGAGAGTCCGTGGTAGGGCAGGTTGGGGTGACTATACGACGA / CTCTCACGTTCGTCGTAT [SAM18-18] | binds more weakly | 
AATTCCGAAGTCCGTGGTAGGGCAGGTTGGGGTGACTATCGACGG [EcoRI-site aptamer strand alone (control)] |  | binding result (no inhibitor strand): binds
ACGTGAGAAGTCCGTGGTAGGGCAGGTTGGGGTGACTTACGACGA / TCTCACGTTTTCGTCGTA [SAM16 with gap = 2] | binds | 
ACGTGAGAAGTCCGTGGTAGGGCAGGTTGGGGTGACTTACGACGA / TCTCACGTTTCGTCGTA [SAM16 with gap = 1] | binds | 
AATTCCGAAGTCCGTGGTAGGGCAGGTTGGGGTGACTATCGACGG / TCGGAATTCCGTCGAT [SAM16-16 with EcoRI site] |  | Kd (before EcoRI digestion): 1.69 µM

Source: doi:10.1101/2022.07.28.501929
